Results are given in words; binding and its absence hold for the method and conditions named. Some binding calls cover weakened binding; strength is not graded here. Tags and fused reporters may be left off the sequences shown.
Key:
[1] = target: NS1 protein of influenza A virus synthesized in vitro from pcDNA3-NS1 (coupled transcription/transla (influenza A virus) (UniProt P03496)); experiment: glutathione Sepharose pull-down
[2] = target: NS1 protein of influenza A virus synthesized in vitro from pcDNA3-NS1 (coupled transcription/transla (influenza A virus) (UniProt P03496)); experiment: glutathione Sepharose pull-down of in vitro translated 35S-NS1

By UniProt entry, the sequences of proteins in these tests, tags left out. Where a name states a change or a piece, a line headed by the entry shows the natural chain unless it says otherwise.
UniProt P03496: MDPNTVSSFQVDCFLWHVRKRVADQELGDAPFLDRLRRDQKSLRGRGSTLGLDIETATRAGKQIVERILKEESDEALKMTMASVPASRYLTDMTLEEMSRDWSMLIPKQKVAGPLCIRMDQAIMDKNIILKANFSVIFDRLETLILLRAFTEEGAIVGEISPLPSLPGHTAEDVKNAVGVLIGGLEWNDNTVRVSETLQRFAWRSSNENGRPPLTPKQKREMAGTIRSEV

B1: GST-NS1-BP fusion protein, which carries amino acids 347 to 619 of NS1-BP (protein)
chain: IEKPMSPMQYARSGLGTAEMNGKLIAAGGYNREECLRTVECYNPHTDHWSFLAPMRTPRARFQMAVLMGQLYVVGGSNGHSDDLSCGEMYDSNIDDWIPVPELRTNRCNAGVCALNGKLYIVGGSDPYGQKGLKNCDVFDPVTKLWTSCAPLNIRRHQSAVCELGGYLYIIGGAESWNCLNTVERYNPENNTWTLIAPMNVARRGAGVAVLNGKLFVCGGFDGSHAISCVEMYDPTRNEWKMMGHMTSPRSNAGIATVGNTIYAVEDSMAMNF
- binding [1]: binds
- binding [2]: binds

Source: US20030232325A1
